Measurements from PMC8431828.
These are yes or no findings as the source states them, for the method shown. Binding seen in cells or lysates may run through a third protein. Some binding calls cover weakened binding; strength is not graded here.

Amino acid sequences for entries named in this document (tags omitted).
UniProt Q8X1E6: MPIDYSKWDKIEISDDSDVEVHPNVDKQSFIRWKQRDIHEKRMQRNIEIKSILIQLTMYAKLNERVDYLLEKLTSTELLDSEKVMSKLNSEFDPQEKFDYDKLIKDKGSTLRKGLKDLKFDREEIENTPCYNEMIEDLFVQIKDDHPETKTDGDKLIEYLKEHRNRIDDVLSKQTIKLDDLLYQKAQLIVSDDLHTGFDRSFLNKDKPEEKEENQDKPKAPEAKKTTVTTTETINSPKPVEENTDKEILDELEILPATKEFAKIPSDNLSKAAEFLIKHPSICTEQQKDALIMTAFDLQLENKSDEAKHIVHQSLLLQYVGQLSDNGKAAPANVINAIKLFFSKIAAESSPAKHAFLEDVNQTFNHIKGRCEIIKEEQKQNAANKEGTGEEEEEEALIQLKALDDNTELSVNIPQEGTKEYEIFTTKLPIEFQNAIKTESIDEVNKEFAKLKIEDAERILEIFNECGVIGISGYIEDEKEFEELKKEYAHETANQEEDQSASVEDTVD
UniProt P46598: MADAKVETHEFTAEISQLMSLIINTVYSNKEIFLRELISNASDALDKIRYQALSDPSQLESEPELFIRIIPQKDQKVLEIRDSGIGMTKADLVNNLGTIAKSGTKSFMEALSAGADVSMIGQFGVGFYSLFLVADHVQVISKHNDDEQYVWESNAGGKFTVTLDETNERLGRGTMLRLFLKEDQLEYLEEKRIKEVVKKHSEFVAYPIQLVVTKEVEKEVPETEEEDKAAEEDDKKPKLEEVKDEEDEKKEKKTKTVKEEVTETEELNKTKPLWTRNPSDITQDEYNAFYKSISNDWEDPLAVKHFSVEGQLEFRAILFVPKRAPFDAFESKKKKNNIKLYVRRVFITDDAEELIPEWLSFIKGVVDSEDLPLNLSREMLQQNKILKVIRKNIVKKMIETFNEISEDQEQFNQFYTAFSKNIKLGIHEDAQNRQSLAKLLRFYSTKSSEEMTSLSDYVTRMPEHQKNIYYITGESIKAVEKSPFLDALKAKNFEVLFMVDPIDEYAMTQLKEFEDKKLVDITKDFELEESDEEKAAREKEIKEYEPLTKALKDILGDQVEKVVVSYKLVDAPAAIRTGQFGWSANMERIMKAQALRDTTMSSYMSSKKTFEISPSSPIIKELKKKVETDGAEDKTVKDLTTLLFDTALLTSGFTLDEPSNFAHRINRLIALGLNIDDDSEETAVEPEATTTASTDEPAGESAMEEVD

Assays:
Test in all cases: co-IP; 7.5 mg of C. albicans lysate protein with IgG or α-HA agarose targeting the tagged co-chaperone, 2 hours at 4°C; 50 mM Tris-HCl pH 7.5, 1% Nonidet P 40 substitute, 0.25% deoxycholate Na, 150 mM NaCl, 5 mM EDTA, 1 mM Na2MoO4; co-immunoprecipitated Hsp90 detected by blot with an Hsp90-specific antibody
[1] = target: HA-tagged Aha1 (C. albicans)
[2] = target: HA-tagged Cdc37 (C. albicans) (UniProt Q8X1E6)
[3] = target: HA-tagged Sba1 (C. albicans)
[4] = target: TAP-tagged Sti1 (C. albicans)

Measured: binding

Candida albicans Hsp90 (wild type) (from UniProt P46598 1-707)
binds: [1] | [2] | [3] | [4]
